Laboratory results published in PubChem BioAssay (NCATS).
Inconclusive means that the source gave no clear call. Such entries were picked first, then a sample of the others. Where the call is inconclusive, the potency comes from a doubtful curve fit. The source made the active and inactive calls. Calls come from the whole dose curve; as a rule, active = well fitted curve in the direction sought with a large enough effect; inconclusive = small, poorly fitted or top-dose-only effect, or another doubt; inactive = no such curve, though single readings can be large; an effect the other way counts as inactive or inconclusive.

Tests used:
[1] = Quantitative High-Throughput drug screen in 47 multiple myeloma cell lines against the NCATS MIPE library collection: INA6_PLB cell viability assay (AID 1918965; note: nearly all actives have a fitted effect of over 55% in size); conditions: INA6 myeloma viability, CellTiter-Glo ATP luminescence, 48 h; viability (% of control): at 45.8 µM (top of the series)
Summary of the method: (§1)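 We plated 500 myeloma cells per well, pinned in MIPE 4.0 compounds, and incubated for 48 hours at 37C. ATP was then quantified with CellTiter-Glo, with DMSO and media-only wells defining 100% and 0%.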

[2] = Quantitative High-Throughput drug screen in 47 multiple myeloma cell lines against the NCATS MIPE library collection: JJN3_DSMZ cell viability assay (AID 1918966; note: nearly all actives have a fitted effect of over 50% in size); conditions: JJN3 myeloma cells viability, CellTiter-Glo ATP, 48 h; series mostly up to 45.8 µM
Summary of the method: (§2)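 Steps: seed 500 cells per well; pin-transfer MIPE 4.0 library; incubate 48 h at 37C, 5% CO2, humidified; add CellTiter-Glo, 5 min room temperature; read luminescence.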

[3] = Quantitative High-Throughput drug screen in 47 multiple myeloma cell lines against the NCATS MIPE library collection: KMS27_JCRB cell viability assay (AID 1918970); conditions: KMS27 myeloma cells, CellTiter-Glo ATP viability, 48 h; viability (% of DMSO): at 45.8 µM (top of the series); note: nearly all actives have a fitted effect of over 30% in size
Summary of the method: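 CellTiter-Glo luminescence after 48 h drug exposure at 37 °C; 500 cells/well, 1536-well format, pin-tool compound addition; DMSO = 100%, media-only = 0% viability.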

[4] = Quantitative High-Throughput drug screen in 47 multiple myeloma cell lines against the NCATS MIPE library collection: KMS12BM_JCRB cell viability assay (AID 1918971); note: nearly all actives have a fitted effect of over 35% in size
Summary of the method: as §1

[5] = Quantitative High-Throughput drug screen in 47 multiple myeloma cell lines against the NCATS MIPE library collection: KMS12PE_JCRB cell viability assay (AID 1918972); conditions: KMS12PE myeloma viability, CellTiter-Glo ATP, 48 h; viability: at 45.8 µM (top of the series); note: nearly all actives have a fitted effect of over 30% in size
Summary of the method: as §1

[6] = Quantitative High-Throughput drug screen in 47 multiple myeloma cell lines against the NCATS MIPE library collection: KMS20_JCRB cell viability assay (AID 1918973); conditions: CellTiter-Glo ATP, 48 h; viability (% of DMSO): at 45.8 µM (top of the series); note: nearly all actives have a fitted effect of over 45% in size
Summary of the method: as §2

[7] = Quantitative High-Throughput drug screen in 47 multiple myeloma cell lines against the NCATS MIPE library collection: KMS21BM_JCRB cell viability assay (AID 1918974); conditions: ATP luminescence, 48 h; viability: at 45.8 µM (top of the series) unless noted
Summary of the method: as §2

[8] = Quantitative High-Throughput drug screen in 47 multiple myeloma cell lines against the NCATS MIPE library collection: KMS26_JCRB cell viability assay (AID 1918975); conditions: KMS26 myeloma cells viability, CellTiter-Glo ATP, 48 h; viability (% of DMSO): at 45.8 µM (top of the series); note: nearly all actives have a fitted effect of over 45% in size
Summary of the method: as §1

[9] = Quantitative High-Throughput drug screen in 47 multiple myeloma cell lines against the NCATS MIPE library collection: MM1S_ATCC cell viability assay (AID 1918980); note: nearly all actives have a fitted effect of over 45% in size
Summary of the method: (§3)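 Plated at 500 cells per well, myeloma lines received MIPE 4.0 compounds by pin tool. Following 48 h culture at 37 °C, CellTiter-Glo luminescence gave viability relative to DMSO and media-only controls.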

[10] = Quantitative High-Throughput drug screen in 47 multiple myeloma cell lines against the NCATS MIPE library collection: H1112_PLB cell viability assay (AID 1918967; note: nearly all actives have a fitted effect of over 30% in size); conditions: H1112 myeloma cells viability, ATP luminescence, 48 h; viability: at 45.8 µM (top of the series)
Summary of the method: as §2

[11] = Quantitative High-Throughput drug screen in 47 multiple myeloma cell lines against the NCATS MIPE library collection: Karpas25_ECACC cell viability assay (AID 1918968; note: nearly all actives have a fitted effect of over 35% in size); conditions: Karpas25 myeloma viability, CellTiter-Glo ATP, 48 h; viability (% of control): at 45.8 µM (top of the series)
Summary of the method: as §2

[12] = Quantitative High-Throughput drug screen in 47 multiple myeloma cell lines against the NCATS MIPE library collection: MMM1_PLB cell viability assay (AID 1918976); note: nearly all actives have a fitted effect of over 35% in size
Summary of the method: as §3

[13] = Quantitative High-Throughput drug screen in 47 multiple myeloma cell lines against the NCATS MIPE library collection: MOLP8_DSMZ cell viability assay (AID 1918977); conditions: MOLP8 myeloma viability, CellTiter-Glo ATP luminescence, 48 h; viability (% of control): at 45.8 µM (top of the series); note: nearly all actives have a fitted effect of over 45% in size
Summary of the method: as §3

[14] = Quantitative High-Throughput drug screen in 47 multiple myeloma cell lines against the NCATS MIPE library collection: NCIH929_DSMZ cell viability assay (AID 1918978); note: nearly all actives have a fitted effect of over 35% in size
Summary of the method: as §3

[15] = Quantitative High-Throughput drug screen in 47 multiple myeloma cell lines against the NCATS MIPE library collection: OCIMY1_PLB cell viability assay (AID 1918979); note: nearly all actives have a fitted effect of over 35% in size
Summary of the method: as §3

[16] = Quantitative High-Throughput drug screen in 47 multiple myeloma cell lines against the NCATS MIPE library collection: MM1R_ATCC cell viability assay (AID 1918981); note: nearly all actives have a fitted effect of over 35% in size
Summary of the method: as §3

[17] = Quantitative High-Throughput drug screen in 47 multiple myeloma cell lines against the NCATS MIPE library collection: LP1_DSMZ cell viability assay (AID 1918982); note: nearly all actives have a fitted effect of over 35% in size
Summary of the method: as §3

[18] = Quantitative High-Throughput drug screen in 47 multiple myeloma cell lines against the NCATS MIPE library collection: KMS28PE_JCRB cell viability assay (AID 1918983); note: nearly all actives have a fitted effect of over 35% in size
Summary of the method: as §3
Potency is the fitted concentration of half-maximal effect.

Row | SMILES | Potency [1] | Potency [2] | Potency [3] | Potency [4] | Potency [5] | Potency [6] | Potency [7] | Potency [8] | Potency [9] | Potency [10] | Potency [11] | Potency [12] | Potency [13] | Potency [14] | Potency [15] | Potency [16] | Potency [17] | Potency [18]
1 | Cc1nc(C(=O)NCC(=O)O)c(O)c2ccc(Oc3ccccc3)cc12 | inactive | inconclusive: 9.35 µM [cytotoxic, partial curve, poor fit] | inconclusive: 2.09 µM [cytotoxic, partial curve, poor fit] | inconclusive: 2.96 µM [cytotoxic, full curve, poor fit] | inconclusive: 33.2 µM [cytotoxic, single point] | inconclusive: 0.0012 µM [rising, full curve, poor fit] | inconclusive: 18.7 µM [cytotoxic, partial curve, poor fit] | inactive | inconclusive: 18.7 µM [cytotoxic, partial curve, poor fit] | – | – | – | – | – | – | – | – | –
2 | Cc1cccc(C)c1OCC(=O)N[C@@H](Cc1ccccc1)[C@@H](O)C[C@H](Cc1ccccc1)NC(=O)[C@H](C(C)C)N1CCCNC1=O | inconclusive: 33.2 µM [cytotoxic, single point] | inconclusive: 16.6 µM [cytotoxic, partial curve, poor fit] | inconclusive: 7.43 µM [cytotoxic, partial curve, poor fit] | inconclusive: 18.7 µM [cytotoxic, partial curve] | – | inconclusive: 0.526 µM [cytotoxic, partial curve, poor fit] | inconclusive: 29.6 µM [rising, partial curve, poor fit] | active: 18.7 µM | – | active: 16.6 µM | inconclusive: 18.7 µM [cytotoxic, partial curve] | active: 16.6 µM | inconclusive: 6.62 µM [cytotoxic, full curve] | inconclusive: 37.2 µM [cytotoxic, single point] | inconclusive: 23.5 µM [cytotoxic, single point] | inconclusive: 18.7 µM [cytotoxic, partial curve] | inconclusive: 18.7 µM [cytotoxic, partial curve] | –
3 | NC(=O)c1nnn(Cc2cc(Cl)c(C(=O)c3ccc(Cl)cc3)c(Cl)c2)c1N | – | – | inconclusive: 11.8 µM [cytotoxic, single point] | inconclusive: 20.9 µM [cytotoxic, partial curve, poor fit] | – | inconclusive: 18.7 µM [cytotoxic, partial curve, poor fit] | – | inconclusive: 0.059 µM [cytotoxic, full curve, poor fit] | – | – | inconclusive: 16.6 µM [cytotoxic, partial curve] | – | inconclusive: 41.8 µM [cytotoxic, partial curve, poor fit] | inconclusive: 33.2 µM [cytotoxic, single point] | – | – | – | inconclusive: 37.2 µM [cytotoxic, single point]
4 | COc1ccc(-c2nc3ccc(C4=NNC(=O)CC4C)cc3[nH]2)cc1 (configuration not stated) | inconclusive: 37.2 µM [cytotoxic, single point] | inactive | inconclusive: 0.0053 µM [rising, full curve, poor fit] | inactive | – | inconclusive: 16.6 µM [cytotoxic, partial curve, poor fit] | inactive | inactive | – | inconclusive: 37.2 µM [cytotoxic, single point] | inconclusive: 26.4 µM [cytotoxic, single point] | inconclusive: 0.0132 µM [rising, full curve, poor fit] | inactive | – | – | inactive | – | –
5 | CCOC(=O)C1=C(O)C(=O)N(Cc2ccccc2)C1 | inactive | – | inconclusive: 14.8 µM [cytotoxic, partial curve, poor fit] | inactive | inactive | inconclusive: 0.148 µM [cytotoxic, full curve, poor fit] | inactive | inconclusive: 11.8 µM [cytotoxic, full curve, poor fit] | inconclusive: 18.7 µM [cytotoxic, partial curve, poor fit] | inactive | – | – | inactive | – | – | inconclusive: 20.9 µM [cytotoxic, single point] | inconclusive: 0.0012 µM [cytotoxic, full curve, poor fit] | –
6 | CC(C)(Cc1ccc2ccccc2c1)NC[C@@H](O)COc1cccc(Cl)c1C#N | inactive | – | – | inactive | inactive | inconclusive: 0.0372 µM [rising, full curve, poor fit] | inconclusive: 16.6 µM [rising, partial curve] | – | active: 16.6 µM | – | – | – | inconclusive: 5.9 µM [cytotoxic, partial curve, poor fit] | – | inactive | inconclusive: 29.6 µM [cytotoxic, single point] | – | –
7 | CCNC(=O)Nc1ccc2ncc(Nc3ccc(C)cc3)nc2n1 | inconclusive: 7.43 µM [cytotoxic, partial curve, poor fit] | – | active: 0.526 µM | inconclusive: 4.69 µM [cytotoxic, partial curve, poor fit] | – | inconclusive: 0.743 µM [cytotoxic, full curve, poor fit] | inconclusive: 5.26 µM [cytotoxic, full curve, poor fit] | inconclusive: 23.5 µM [cytotoxic, partial curve, poor fit] | inconclusive: 2.96 µM [cytotoxic, full curve] | – | – | – | – | – | inconclusive: 1.18 µM [cytotoxic, full curve, poor fit] | active: 18.7 µM | inconclusive: 37.2 µM [cytotoxic, single point] | –
8 | Cc1cc(=O)c2c(O)c3c(O)cc(=O)c4c3c3c(cc(O)c1c23)C(C)(C)C=4O | – | inconclusive: 4.69 µM [cytotoxic, partial curve, poor fit] | inconclusive: 0.372 µM [cytotoxic, partial curve, poor fit] | – | inconclusive: 0.469 µM [cytotoxic, full curve] | – | active: 4.18 µM | – | inconclusive: 14.8 µM [cytotoxic, partial curve, poor fit] | – | active: 0.264 µM | – | active: 2.64 µM | – | inconclusive: 18.7 µM [cytotoxic, partial curve, poor fit] | – | – | –
9 | CC(C)(C)NC(=O)Nc1cccc(Nc2ncc(F)c(NC(C)(C)CO)n2)c1 | – | inconclusive: 0.935 µM [cytotoxic, full curve, poor fit] | inconclusive: 23.5 µM [cytotoxic, partial curve, poor fit] | inactive | – | inactive | – | inconclusive: 7.43 µM [cytotoxic, partial curve, poor fit] | inconclusive: 37.2 µM [cytotoxic, single point] | – | inconclusive: 7.43 µM [cytotoxic, partial curve, poor fit] | inconclusive: 26.4 µM [cytotoxic, single point] | inactive | – | – | inconclusive: 0.0026 µM [rising, full curve, poor fit] | inconclusive: 18.7 µM [cytotoxic, partial curve] | inactive
10 | CC[C@H](CO)Nc1nc(NCc2ccccc2)c2ncn(C(C)C)c2n1 | inconclusive: 16.6 µM [cytotoxic, partial curve, poor fit] | – | inconclusive: 11.8 µM [cytotoxic, single point] | inconclusive: 33.2 µM [cytotoxic, single point] | – | inconclusive: 33.2 µM [cytotoxic, single point] | active: 4.18 µM | – | – | active: 18.7 µM | – | inconclusive: 0.0053 µM [cytotoxic, full curve, poor fit] | inconclusive: 33.2 µM [cytotoxic, single point] | – | inconclusive: 29.6 µM [cytotoxic, single point] | – | active: 26.4 µM | inconclusive: 37.2 µM [cytotoxic, single point]
11 | CC(C)C[C@@H](N)[C@H](O)C(=O)N[C@H](C(=O)N[C@H](C(=O)N[C@@H](CC(=O)O)C(=O)O)C(C)C)C(C)C | inconclusive: 0.0526 µM [cytotoxic, full curve, poor fit] | inconclusive: 4.18 µM [cytotoxic, partial curve, poor fit] | – | inactive | – | inconclusive: 1.48 µM [cytotoxic, full curve, poor fit] | inconclusive: 33.2 µM [rising, single point] | inconclusive: 9.35 µM [cytotoxic, partial curve, poor fit] | – | inconclusive: 23.5 µM [cytotoxic, single point] | inconclusive: 23.5 µM [cytotoxic, partial curve] | – | inconclusive: 0.833 µM [cytotoxic, full curve, poor fit] | inconclusive: 26.4 µM [cytotoxic, single point] | inactive | inconclusive: 2.35 µM [cytotoxic, partial curve, poor fit] | inactive | –
12 | CN1CCN(c2cccc(Nc3nc4c(-c5ccc(S(C)(=O)=O)cc5)cccn4n3)c2)CC1 | – | inconclusive: 11.8 µM [cytotoxic, partial curve, poor fit] | – | – | active: 0.833 µM | inconclusive: 3.72 µM [cytotoxic, full curve, poor fit] | active: 3.32 µM | – | inconclusive: 2.96 µM [cytotoxic, full curve, poor fit] | – | – | – | active: 9.35 µM | – | inconclusive: 20.9 µM [cytotoxic, partial curve, poor fit] | active: 16.6 µM | – | –

Taken from above.
Potency [3] with `CC(C)(C)NC(=O)Nc1cccc(Nc2ncc(F)c(NC(C)(C)CO)n2)c1` is entered as inconclusive: 23.5 µM [cytotoxic, partial curve, poor fit]
Potency [3] with `CCOC(=O)C1=C(O)C(=O)N(Cc2ccccc2)C1` is entered as inconclusive: 14.8 µM [cytotoxic, partial curve, poor fit]
